From US8933103B2, “Pyridone derivatives” (Daiichi Sankyo Company, Limited, priority 2012, dated 2015)

What was measured:
[1] = biological target: T1, phosphorylated Axl (pAxl Y702) in NCI-H1299 cells (Homo sapiens, UniProt P30530); assay: Intracellular Axl Phosphorylation Inhibitory Activity (pAxl, NCI-H1299 cells); type: cell-based; details: 1 h compound incubation, GAS6 stimulation 10 minutes, pAxl (Y702) level
T1 construct: endogenous in cells; host or cells: NCI-H1299
T1 sequence (P30530 26-894): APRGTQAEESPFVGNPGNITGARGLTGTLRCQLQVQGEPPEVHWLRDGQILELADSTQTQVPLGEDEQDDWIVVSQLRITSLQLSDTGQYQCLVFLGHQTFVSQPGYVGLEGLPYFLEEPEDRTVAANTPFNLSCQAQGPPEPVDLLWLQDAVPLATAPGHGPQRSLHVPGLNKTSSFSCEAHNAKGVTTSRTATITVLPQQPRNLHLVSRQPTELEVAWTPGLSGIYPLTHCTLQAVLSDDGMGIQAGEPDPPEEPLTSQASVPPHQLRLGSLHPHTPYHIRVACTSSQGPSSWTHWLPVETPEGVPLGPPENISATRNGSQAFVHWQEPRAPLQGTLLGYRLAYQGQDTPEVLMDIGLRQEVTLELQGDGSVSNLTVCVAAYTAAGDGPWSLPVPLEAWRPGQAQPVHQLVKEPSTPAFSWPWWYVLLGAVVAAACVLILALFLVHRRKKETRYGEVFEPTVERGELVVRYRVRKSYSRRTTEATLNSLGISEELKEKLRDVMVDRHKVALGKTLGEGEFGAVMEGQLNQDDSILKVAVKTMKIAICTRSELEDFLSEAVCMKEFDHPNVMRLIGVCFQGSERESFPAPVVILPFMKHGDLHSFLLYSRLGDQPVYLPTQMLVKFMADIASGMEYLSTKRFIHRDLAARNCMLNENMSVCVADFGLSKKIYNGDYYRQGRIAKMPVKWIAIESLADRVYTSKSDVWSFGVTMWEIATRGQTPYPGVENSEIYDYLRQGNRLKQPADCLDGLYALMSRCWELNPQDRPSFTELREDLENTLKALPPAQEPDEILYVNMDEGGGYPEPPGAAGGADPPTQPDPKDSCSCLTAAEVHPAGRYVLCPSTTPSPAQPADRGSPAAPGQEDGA
Description: A phosphorylated Axl (hereinafter pAxl) inhibitory test was performed using the human non-small-cell lung cancer-derived cell strain NCI-H1299.
On the following day, the medium was removed, 100 μl of fresh medium were added, and the cells were cultured at 37° C. in the presence of 5% CO2 for one day.
The test compound was dissolved in DMSO and diluted with medium to prepare a sample solution (DMSO concentration: 2%). Twenty-five microliters of medium or sample-added medium was added to each well (DMSO concentration: 0.4%), and the plate was incubated at 37° C. in the presence of 5% CO2 for one hour.
After stirring, the plate was incubated at 37° C. in the presence of 5% CO2 for 10 minutes.
The supernatant was discarded, and 0.1 ml of a 37% formalin solution diluted to 4% with phosphate buffer (PBS) (hereinafter “4% formalin solution”) was added to each well. The plate was allowed to stand at room temperature for 10 minutes.
Next, the 4% formalin solution was discarded, and 0.2 ml of a solution of Triton X-100 diluted to 0.1% with PBS (hereinafter “wash buffer”) was added. […]
After light stirring, the plate was incubated for 20 minutes. Luminescence was then measured by ARVO sx (PerkinElmer), and the pAxl (Y702) level was measured.
pAxl Inhibitory activity was determined by the following formula. […]
T: Luminescence value of the reaction solution with a compound not added

[2] = biological target: T2, AXL (fusion protein of amino acids 464-885 of the intracellular domain of human AXL with glutathione transferase) (Homo sapiens, UniProt P30530); assay: Cell-Free Axl Kinase Inhibitory Activity
T2 sequence (P30530 464-885 isoform P30530-2): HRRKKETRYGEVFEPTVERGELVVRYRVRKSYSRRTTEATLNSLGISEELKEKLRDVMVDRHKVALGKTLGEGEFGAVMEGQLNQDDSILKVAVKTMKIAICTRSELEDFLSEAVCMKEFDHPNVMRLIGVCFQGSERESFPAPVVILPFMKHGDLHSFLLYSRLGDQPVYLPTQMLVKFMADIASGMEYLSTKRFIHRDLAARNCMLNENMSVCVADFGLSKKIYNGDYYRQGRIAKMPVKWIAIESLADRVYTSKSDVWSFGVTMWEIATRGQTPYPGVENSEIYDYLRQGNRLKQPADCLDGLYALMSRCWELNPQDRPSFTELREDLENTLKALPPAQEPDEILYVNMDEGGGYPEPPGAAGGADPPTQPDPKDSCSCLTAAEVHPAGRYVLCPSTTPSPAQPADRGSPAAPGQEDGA

`COc1ccccc1-c1cnc(N)c(-c2ccc(NC(=O)c3cn(CC(F)(F)F)cc(-c4ccc(F)cc4)c3=O)cc2)c1` [Example 34, N-{4-[2-Amino-5-(2-methoxyphenyl)pyridin-3-yl]phenyl}-5-(4-fluorophenyl)-4-oxo-1-(2,2,2-trifluoroethyl)-1,4-dihydropyridine-3-carboxamide] showed an IC50 [1] of 50 to 100 nM and an IC50 [2] of 1 to 10 nM.
